Source: publication PMC6477179

Target: 9xmyc-Atg11 ΔCTR (S. cerevisiae)
Assay: co-IP; S. cerevisiae Atg11Δ with pRS315-9myc-Atg11 plasmids, grown in YPD; anti-myc Dynabeads 1 h at 4°C in RLB+ buffer; western blot with anti-myc and anti-Atg19

binding: no binding
B1: Atg19 (endogenous, S. cerevisiae) (protein, UniProt P35193 1-415)
chain: MNNSKTNQQMNTSMGYPLTVYDECNKFQLIVPTLDANIMLWCIGQLSLLNDSNGCKHLFWQPNDKSNVRILLNNYDYGHLFKYLQCQRKCSVYIGEGTLKKYNLTISTSFDNFLDLTPSEEKESLCREDAHEDPVSPKAGSEEEISPNSTSNVVVSRECLDNFMKQLLKLEESLNKLELEQKVTNKEPNHRISGTIDIPEDRSELVNFFTELKTVKQLEDVFQRYHDYERLSQECDSKTEIASDHSKKETKIEVEPPNERSLQITMNQRDNSLYFQLFNNTNSVLAGNCKLKFTDAGDKPTTQIIDMGPHEIGIKEYKEYRYFPYALDLEAGSTIEIENQYGEVIFLGKYGSSPMINLRPPSRLSAESLQASQEPFYSFQIDTLPELDDSSIISTSISLSYDGDDNEKALTWEEL

No constants are given. Whether binding was seen depends on the method and setting. Binding seen in cells or lysates may run through a third protein.
